Where a chain is given by its changes, count along the chain named. These are yes or no findings as the source states them, for the method shown. In cells and extracts the contact can be indirect. Some entries that bind do so weakly or less than the wild type. For part of these data: Tags and fused reporters may be left off the sequences shown.
What was measured:
[1] = molecular target: T1, endogenous Perilipin 1 (Plin1) (mouse (endogenous in WAT and 3T3-L1)) (UniProt Q8CGN5); assay: co-IP; sequential IP of cross-linked lysates: first HA beads, glycine elution, then HSL or Plin1 antibody; native PAGE; immunoblot with HA antibody, MS of the high molecular weight band
T1 sequence: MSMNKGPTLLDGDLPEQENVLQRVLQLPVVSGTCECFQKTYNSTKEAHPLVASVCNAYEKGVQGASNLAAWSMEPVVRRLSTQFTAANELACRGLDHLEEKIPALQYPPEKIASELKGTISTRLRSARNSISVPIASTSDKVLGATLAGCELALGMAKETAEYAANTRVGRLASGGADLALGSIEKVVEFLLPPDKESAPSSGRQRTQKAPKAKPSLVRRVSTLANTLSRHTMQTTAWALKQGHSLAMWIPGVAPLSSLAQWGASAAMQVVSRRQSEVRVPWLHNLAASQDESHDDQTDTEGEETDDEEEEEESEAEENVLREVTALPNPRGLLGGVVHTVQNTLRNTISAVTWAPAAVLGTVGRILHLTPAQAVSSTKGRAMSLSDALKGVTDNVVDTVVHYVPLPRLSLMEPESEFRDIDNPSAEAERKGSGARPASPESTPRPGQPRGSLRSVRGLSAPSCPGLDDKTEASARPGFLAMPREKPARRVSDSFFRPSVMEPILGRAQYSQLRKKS

[2] = molecular target: T1, endogenous Perilipin 1 (Plin1) (mouse (endogenous in WAT and 3T3-L1)); assay: co-IP; differentiated 3T3-L1 adipocytes with Dox-inducible F-ApoL6-HA or N-ApoL6-HA, basal or stimulated, with or without Dox; 1% Triton X-100, 150 mM NaCl, 10% glycerol, 25 mM Tris pH 7.4; IP with Plin1 antibody at 4 C overnight, immunoblot with HSL antibody
[3] = molecular target: T1, endogenous Perilipin 1 (Plin1) (mouse (endogenous in WAT and 3T3-L1)); assay: co-IP; total LD-associated proteins of mouse WAT (aP2-ApoL6 TG or WT; fasted or fed mice for Plin1-HSL); IP with Myc, Plin1 or ApoL6 antibody, immunoblot
[4] = molecular target: T2, Myc-tagged full-length Plin1 (F-Plin1) (UniProt Q8CGN5); assay: co-IP; 293 FT cells co-transfected with Myc-tagged Plin1 or Plin1SD and HA tagged ApoL6 and/or HSL (basal condition); IP with Myc antibody, immunoblot with HA or HSL antibody
T2 sequence: T1 sequence

Myc-tagged Plin1SD = molecular target: T3, Myc-tagged Plin1SD (UniProt Q8CGN5); assay: as above
T3 sequence: T1 sequence with S81D, S222D, S276D

[5] = molecular target: T4, Plin1 expressed in HEK293 cells (UniProt Q8CGN5); assay: co-IP; HEK293 cells co-transfected with Plin1 and HSL and infected with Dox-inducible lentiviral F-ApoL6-HA or N-ApoL6-HA, stimulated condition, with or without Dox; IP with Plin1 antibody, immunoblot with HSL antibody
T4 sequence: T1 sequence

Measured: binding

B1: endogenous hormone-sensitive lipase (HSL) (enzyme, UniProt P54310 1-759)
chain: MDLRTMTQSLVTLAEDNMAFFSSQGPGETARRLSNVFAGVREQALGLEPTLGQLLGVAHHFDLDTETPANGYRSLVHTARCCLAHLLHKSRYVASNRKSIFFRASHNLAELEAYLAALTQLRAMAYYAQRLLTINRPGVLFFEGDEGLTADFLQEYVTLHKGCFYGRCLGFQFTPAIRPFLQTLSIGLVSFGEHYKRNETGLSVTASSLFTGGRFAIDPELRGAEFERIIQNLDVHFWKAFWNITEIEVLSSLANMASTTVRVSRLLSLPPEAFEMPLTSDPRLTVTISPPLAHTGPAPVLARLISYDLREGQDSKVLNSLAKSEGPRLELRPRPHQAPRSRALVVHIHGGGFVAQTSKSHEPYLKNWAQELGVPIFSIDYSLAPEAPFPRALEECFFAYCWAVKHCDLLGSTGERICLAGDSAGGNLCITVSLRAAAYGVRVPDGIMAAYPVTTLQSSASPSRLLSLMDPLLPLSVLSKCVSAYSGTEAEDHFDSDQKALGVMGLVQRDTSLFLRDLRLGASSWLNSFLELSGRKPQKTTSPTAESVRPTESMRRSVSEAALAQPEGLLGTDTLKKLTIKDLSNSEPSDSPEMSQSMETLGPSTPSDVNFFLRPGNSQEEAEAKDEVRPMDGVPRVRAAFPEGFHPRRSSQGVLHMPLYTSPIVKNPFMSPLLAPDSMLKTLPPVHLVACALDPMLDDSVMFARRLRDLGQPVTLKVVEDLPHGFLSLAALCRETRQATEFCVQRIRLILTPPAAPLN
binds: [1] | [2] | [3]

B2: HSL expressed in HEK293 / 293 FT cells (enzyme, UniProt P54310 1-759)
chain: B1 chain
binds: [4] | Myc-tagged Plin1SD | [5]

— PMC10762002
